Test results as given in article doi:10.1101/2023.06.02.543398.
These are yes or no findings as the source states them, for the method shown. Some binding calls cover weakened binding; strength is not graded here.

Protein sequences, listed by entry. Tags and fused reporters are not part of them. Residues count along the entry.
UniProt Q14244, residues 59-170: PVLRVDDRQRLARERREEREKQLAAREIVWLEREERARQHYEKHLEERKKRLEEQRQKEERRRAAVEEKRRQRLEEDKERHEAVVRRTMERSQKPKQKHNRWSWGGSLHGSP

Target: MAP7 MT-binding domain (MTBD), residues 59-170 (Homo sapiens) (UniProt Q14244)
Test: NMR titration

DATAEEEEDFGEEAEEEA [β-tubulin carboxy-terminal tail peptide (Asp 427-Ala 444 of HeLa S3 β-tubulin)]
binding: binds weakly
